No constants are given. Whether binding was seen depends on the method and setting. In cells and extracts the contact can be indirect. A yes stands for co-enrichment or nearness to the bait. Other partners may have been found. Where a sequence is shown, tags or fusion partners need not be part of it.

The target of this assay is T1, Minichromosome maintenance family protein 5 (MCM5), At2g07690, from Arabidopsis cell suspension culture (Arabidopsis) (UniProt O80786).
T1 sequence (looked up): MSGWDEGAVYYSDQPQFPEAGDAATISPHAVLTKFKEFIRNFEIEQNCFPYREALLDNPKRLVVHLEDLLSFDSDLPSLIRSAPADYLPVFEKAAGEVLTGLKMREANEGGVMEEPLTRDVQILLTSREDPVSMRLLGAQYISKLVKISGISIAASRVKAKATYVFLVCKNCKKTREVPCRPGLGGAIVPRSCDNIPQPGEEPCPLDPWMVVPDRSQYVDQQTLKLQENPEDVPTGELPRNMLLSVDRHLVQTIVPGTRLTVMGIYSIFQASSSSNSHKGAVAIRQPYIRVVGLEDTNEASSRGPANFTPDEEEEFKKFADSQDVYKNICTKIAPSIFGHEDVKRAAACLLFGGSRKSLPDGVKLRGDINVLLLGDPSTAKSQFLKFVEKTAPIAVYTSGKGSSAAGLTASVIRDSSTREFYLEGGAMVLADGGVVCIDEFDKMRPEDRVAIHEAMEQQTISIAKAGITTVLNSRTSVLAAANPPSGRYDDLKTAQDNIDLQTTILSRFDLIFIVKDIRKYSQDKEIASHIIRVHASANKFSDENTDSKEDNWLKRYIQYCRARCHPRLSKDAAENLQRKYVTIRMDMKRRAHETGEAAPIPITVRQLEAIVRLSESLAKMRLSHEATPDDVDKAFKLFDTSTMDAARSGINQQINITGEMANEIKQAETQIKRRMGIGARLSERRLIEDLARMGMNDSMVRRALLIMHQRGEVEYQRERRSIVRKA
Put plainly: listed among ETG1-copurified proteins (TAP, mass spectrometry); detected in the two independent TAP experiments.

B1: TAP-ETG1 (TAP-tagged ETG1 bait, Pro35S:TAP-ETG1) (protein, Arabidopsis, UniProt Q501D5 1-589, looked up)
chain: MGGPAYDCLTNPLGAVRFSFVNALSSGYDPASSVGKDWGVVDLFRHYFSDESAISQVPILDSSSIKWVQPKTLVRFRGMIQDMLGNEFYAGAYKDDSTWRTNKYSDVSQFPEGSSTEIQVWERRLLYCVPVPGKNQWTECSSQELKNRFLDLTGQNREKRVRVDEEMTDSMDSSTLEAGRNGSPFKKMKVGEATSSASESQVPQTSGIPPATSADSLPCLVKIYDSPESDLKLNDVVEFLGVLTFDPIVMMDTDTLDENSDALSEAESVQMPSGKVPRLHCLIHRKLETQHFLHGSSLLPEPKSPQIFKEIRESLMKYLTGLLGNDHIAAQFLLLHLLSKVHGRVDNVAVGKLSLNLIHLNKESMSIFGTQLSGALKSLLPFTQSIPLTIEYLNTASFGPKKDYGINRLMPGVLQIADGTHLILDETELQPGTLNSVGVENANLLKNLLECQKVEYDFQYYKMEMATDVQMLIFSEGKSNIMPADLVLPLQPSQVNSLEVITPETAETWRCYLATCKSLSHSIGQELQQVVENDLVAARQTDRSLGSQDLSRLLTMARMMSVSYGETTLSLEHWQMVLELERLRKERLK
B1: the binding entry was “binds”.

The values are drawn from patent US20110229491A1 (published 2011).
